Screen size: about 320,000 compounds; about 22,000 (6.9%) were called active. The shares of active, inactive and inconclusive entries below differ from those in the screen. The call rests on the fitted dose curve; in most records, active means well fitted inhibition curve with a large enough effect; inconclusive means small, poorly fitted or top-dose-only effect, or another doubt; inactive means no such curve, though single readings can be large or run the other way. Potencies of inconclusive entries are doubtful fits and often do not repeat.
Experiment: Primary qHTS for delayed death inhibitors of the malarial parasite plastid, 96 hour incubation
Conditions: P. falciparum luciferase reporter growth; series mostly up to 28.7 µM
Outline: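 Luminescence readout: decreased luciferase signal marks inhibited growth of reporter-expressing P. falciparum in infected red cells (2% hematocrit, 0.05% parasitemia final), exposed to compound two generations (96 h, 37 C, 5% CO2).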
With CCn1c(=O)cc(OCC(=O)NCc2ccc(C)o2)c2ccccc21 the Potency was inconclusive: 5.22 µM [inhibitor, partial curve, poor fit].
In the case of CN(C)CCCNC(=S)N1CCn2c(nc3ccccc32)C1, the Potency is reported as inconclusive: 11.7 µM [inhibitor, single point].
In the case of CCC1Nc2ncnc(N3CCN(c4ccccc4)CC3)c2N(Cc2ccc(Cl)cc2)C1=O (stereo not given), the Potency is reported as inconclusive: 18.5 µM [inhibitor, single point].
In the case of O=C(O)c1cnc(-c2ccccc2)nc1C(F)(F)F, the Potency is reported as inconclusive: 0.0828 µM [inhibitor, full curve, poor fit].
For Cc1ccccc1S(=O)(=O)Cc1ccc(C(=O)N2CCN(c3ncccn3)CC2)o1, the Potency was inconclusive: 2.33 µM [inhibitor, partial curve, poor fit].
For CN(C)S(=O)(=O)n1cc(/C=C(\NC(=O)c2ccccc2Cl)C(=O)N2CCOCC2)c2ccccc21, the Potency was “inactive”.
For COc1cccc(CNn2c(-c3cccc(C)c3)nc3ccccc3c2=O)c1O, the Potency was inconclusive: 13.1 µM [inhibitor, partial curve, poor fit].
In the case of O=C(OCc1nc2scc(-c3ccccc3)c2c(=O)[nH]1)c1cc([N+](=O)[O-])ccc1Cl, the Potency is reported as inconclusive: 9.28 µM [inhibitor, partial curve, poor fit].
In the case of CC1=NN(C(=O)c2ccc(Cn3nc(C)cc3C)o2)C(O)(C(F)(F)F)C1 (stereo not given), the Potency is reported as “inactive”.
In the case of Cc1c(Br)c([N+](=O)[O-])nn1CCCC(=O)N1CCN(c2ccccc2)CC1, the Potency is reported as inconclusive: 18.5 µM [inhibitor, single point].
With CCC(=NCCc1c[nH]c2ccccc12)c1c(O)n(C)c(=O)n(C)c1=O the Potency was inconclusive: 9.28 µM [inhibitor, partial curve, poor fit].
In the case of COC(=O)c1[nH]c2cc(OC)ccc2c1NC(=O)CN1CCOCC1, the Potency is reported as inconclusive: 14.7 µM [inhibitor, single point].
With COc1ccc(CCNc2nc(-c3cccnc3)nc3ccccc23)cc1OC the Potency was inconclusive: 4.65 µM [inhibitor, partial curve, poor fit].
With CCOC(=O)N1CCN(C(=O)c2ccc3c(=O)n(-c4ccccc4F)c(=S)[nH]c3c2)CC1 the Potency was “inactive”.
With O=C(/C=C/c1cccc([N+](=O)[O-])c1)Nc1cccc(NC(=O)c2ccco2)c1 the Potency was “inactive”.
In the case of O=C(CSCc1ccc(Br)cc1)NC1CC1, the Potency is reported as “inactive”.
In the case of Cc1cc(C)c(NC(=O)Cn2c(=O)c3cccn3c3ccccc32)c(C)c1, the Potency is reported as inconclusive: 14.7 µM [inhibitor, single point].
With CCn1c(=NC(=O)C2COc3ccccc3O2)sc2c(C)ccc(OC)c21 (stereo not given) the Potency was inconclusive: 8.28 µM [inhibitor, partial curve, poor fit].
With CCC(=O)Nc1nnc(-c2ccc(Cl)s2)o1 the Potency was inconclusive: 0.522 µM [inhibitor, full curve, poor fit].
For COc1ccccc1S(=O)Cc1ccc(C(=O)NCCc2ccc(Cl)cc2)o1 (stereo not given), the Potency was inconclusive: 2.08 µM [inhibitor, full curve, poor fit].
For Cn1nc(C(=O)N2CCCc3ccccc32)c2ccccc2c1=O, the Potency was “inactive”.
In the case of CCOc1ccc(N(C)C(=O)CCc2nnc3ccc(N4CCCC4)nn23)cc1, the Potency is reported as inconclusive: 18.5 µM [inhibitor, single point].
With CC(=O)Nc1ccc(NC(=O)C2CCN(c3ccc(C(F)(F)F)cn3)CC2)cc1 the Potency was “inactive”.
For CC(=O)NC(C)CCc1ccccc1 (stereo not given), the Potency was “inactive”.
For COC(c1ccccc1)c1nnc(CCC(=O)N2CCN(CCOc3ccccc3)CC2)o1 (stereo not given), the Potency was inconclusive: 13.1 µM [inhibitor, single point].
With COc1ccc(NS(=O)(=O)c2ccc(NC(=O)C(CCSC)NC(N)=O)cc2)cc1 (stereo not given) the Potency was “inactive”.
In the case of O=[N+]([O-])c1cc(/C=N/Nc2nc(N3CCOCC3)nc(N3CCOCC3)n2)ccc1Cl, the Potency is reported as “inactive”.
With COc1ccc(-c2nc(C)ncc2-c2ccccc2)c(O)c1 the Potency was inconclusive: 18.5 µM [inhibitor, single point].
In the case of Cc1ccc2cccc(Oc3ncnc4scc(-c5ccccc5)c34)c2n1, the Potency is reported as inconclusive: 13.1 µM [inhibitor, partial curve, poor fit].
For Cc1cc(/C=C2\SC(=Nc3ccc(N4CCOCC4)cc3)N(C)C2=O)c(C)n1-c1cccnc1, the Potency was inconclusive: 10.4 µM [inhibitor, partial curve, poor fit].
In the case of C/C=C/c1ccc(OCC(=O)O)c(OC)c1, the Potency is reported as “inactive”.
With O=C(N/N=C/c1c[nH]c2ccccc12)c1ccn(Cc2ccc(Cl)cc2Cl)n1 the Potency was inconclusive: 3.7 µM [inhibitor, partial curve].
With CCCc1nc2ccccc2c(=O)n1-c1ccccc1OC the Potency was inconclusive: 9.28 µM [inhibitor, partial curve, poor fit].
For Cc1oc(-c2ccccc2F)nc1CN1CCC(C(=O)NCc2cccnc2)CC1, the Potency was inconclusive: 16.5 µM [inhibitor, partial curve, poor fit].
For CCCCN(C)C(=O)CCC(=O)Nc1ccc2nc(N3CCOCC3)cc(C)c2c1, the Potency was inconclusive: 0.0041 µM [inhibitor, full curve, poor fit].
For CCc1ccc(N2CC(C(=O)Nc3ccc(S(=O)(=O)N4CCCCC4)cc3)CC2=O)cc1 (stereo not given), the Potency was inconclusive: 6.57 µM [inhibitor, partial curve, poor fit].
In the case of Cc1ccc(-n2ncc3c2CCCC3NC(=O)CCc2cnccn2)cc1C (stereo not given), the Potency is reported as “inactive”.
For COc1cccc(C(=O)Nc2cccc(-c3ccc4nncn4n3)c2)c1OC, the Potency was inconclusive: 18.5 µM [inhibitor, single point].
With CCOC(=O)c1cccc(NC(=O)CSc2nnc(CNc3ccc(C)cc3)n2CC)c1 the Potency was inconclusive: 11.7 µM [inhibitor, partial curve].
With CC(=O)Nc1ccc(C(=O)OCc2ccc(Cl)cc2)cc1 the Potency was inconclusive: 0.037 µM [inhibitor, full curve, poor fit].
With CC(=O)COc1cc2c(-c3cc4ccccc4o3)cc(=O)oc2cc1C the Potency was inconclusive: 18.5 µM [inhibitor, single point].
In the case of COc1ccc(OCC(=O)N2N=C(C)CC2(O)C(F)(F)F)cc1 (stereo not given), the Potency is reported as inconclusive: 5.86 µM [inhibitor, partial curve, poor fit].
In the case of CCOC(=O)c1cc2c(cn1)[nH]c1ccccc12, the Potency is reported as inconclusive: 16.5 µM [inhibitor, single point].
In the case of COc1ccc(S(=O)(=O)Cc2ccc(C(=O)NC3CCCCCC3)o2)cc1, the Potency is reported as active: 7.38 µM.
For O=C(Nc1ccccc1O)c1cccc(NC(=O)c2ccco2)c1, the Potency was inconclusive: 18.5 µM [inhibitor, single point].
In the case of COc1ccc(C(=O)Nc2ccc3c(c2)OCCO3)cc1Br, the Potency is reported as inconclusive: 18.5 µM [inhibitor, single point].
In the case of Cc1nn(-c2ccccc2)c2sc(C(=O)N(CC(=O)NC(C)(C)C)Cc3ccco3)cc12, the Potency is reported as inconclusive: 10.4 µM [inhibitor, partial curve, poor fit].
For CCOC(=O)CSc1nc2ccccc2c(=O)n1CCC(=O)NCCc1ccc(OC)c(OC)c1, the Potency was inconclusive: 10.4 µM [inhibitor, single point].
With CCOc1ccc(C(=O)NC(=S)N2CCN(c3ccc(C(F)(F)F)cc3[N+](=O)[O-])CC2)cc1 the Potency was inconclusive: 13.1 µM [inhibitor, single point].
For CC1C(=O)C(C)C(c2ccc(O)cc2)NC1c1ccc(O)cc1 (stereo not given), the Potency was inconclusive: 3.29 µM [inhibitor, partial curve].
In the case of O=C(c1cccc(S(=O)(=O)Nc2ccccc2Cl)c1)N1CCN(C(=O)c2ccco2)CC1, the Potency is reported as inconclusive: 2.08 µM [inhibitor, full curve].
For COc1cccc(C(=O)NNC(=O)C(=O)Nc2cccc3ccccc23)c1, the Potency was inconclusive: 8.28 µM [inhibitor, single point].
In the case of O=C(C(Cc1ccccc1)n1cccc1)N1CCN(c2cccc(Cl)c2)CC1 (stereo not given), the Potency is reported as inconclusive: 18.5 µM [inhibitor, single point].
In the case of O=C(Nc1ccc(N2CCCC2)cc1)c1cccc(-c2cc3ccccc3oc2=O)c1, the Potency is reported as active: 0.415 µM.
In the case of CC(=O)c1ccc(NC(=O)C2(c3ccccc3)CCOCC2)cc1, the Potency is reported as “inactive”.
For Fc1ccc(CNc2nc3ccccc3n3nnnc23)cc1, the Potency was active: 14.7 µM.
With Fc1ccc(Cn2nnnc2CN2CCC(n3nnc4cc(C(F)(F)F)ccc43)CC2)cc1 the Potency was inconclusive: 14.7 µM [inhibitor, partial curve, poor fit].
In the case of CC(C)c1ccc(/C=C2\SC(=S)N(CCC(=O)NCCCn3ccnc3)C2=O)cc1, the Potency is reported as inconclusive: 11.7 µM [inhibitor, single point].
With Cc1cccc(NC(=O)c2ccc3c(c2)C(=O)N(Cc2cccnc2)C3=O)c1C the Potency was inconclusive: 9.28 µM [inhibitor, single point].
For CCCCc1nc(SCC(=O)Nc2nnc(C(C)C)s2)n[nH]1, the Potency was “inactive”.
For CCCC(C(=O)NC1CCCC1)N(C(=O)c1snc(C(N)=O)c1N)c1ccc(F)cc1 (stereo not given), the Potency was “inactive”.
For CSc1ccc(-c2nc(CSCC(=O)NCCCN3CCOCC3)c(C)o2)cc1, the Potency was active: 9.28 µM.
In the case of CN(C)Cc1c(C(=O)N/N=C/c2ccc(OCc3c(F)cccc3Cl)cc2)nnn1-c1nonc1N, the Potency is reported as inconclusive: 10.4 µM [inhibitor, partial curve].
In the case of O=C(COc1ccc(Cl)cc1)NCCNC(=O)c1cnccn1, the Potency is reported as inconclusive: 0.0041 µM [inhibitor, partial curve, poor fit].
With Cc1ccc(NC2=C/C(=N\S(=O)(=O)c3cccs3)c3ccccc3C2=O)c(C)c1 the Potency was active: 0.0329 µM.

From PubChem BioAssay AID504834 (National Center for Advancing Translational Sciences (NCATS), 2011)
Potency means the concentration at half of the fitted maximal effect.
